Results: patent US20230031980A1 (SHANGHAI NINTH PEOPLE S HOSPITAL SHANGHAI JIAO TONG …, published 2023)
These are yes or no findings as the source states them, for the method shown. Binding seen in cells or lysates may run through a third protein. Some entries that bind do so weakly or less than the wild type. For some assays here: Sequences can lack the tags named with a protein. Blank lines part the entries; values can stand above or below the molecule they belong to.

Sequences of proteins named here, by UniProt entry; tags and fusion partners are left off. A change or cut given only in a name is not applied to a line headed by its entry.
UniProt Q9UL03: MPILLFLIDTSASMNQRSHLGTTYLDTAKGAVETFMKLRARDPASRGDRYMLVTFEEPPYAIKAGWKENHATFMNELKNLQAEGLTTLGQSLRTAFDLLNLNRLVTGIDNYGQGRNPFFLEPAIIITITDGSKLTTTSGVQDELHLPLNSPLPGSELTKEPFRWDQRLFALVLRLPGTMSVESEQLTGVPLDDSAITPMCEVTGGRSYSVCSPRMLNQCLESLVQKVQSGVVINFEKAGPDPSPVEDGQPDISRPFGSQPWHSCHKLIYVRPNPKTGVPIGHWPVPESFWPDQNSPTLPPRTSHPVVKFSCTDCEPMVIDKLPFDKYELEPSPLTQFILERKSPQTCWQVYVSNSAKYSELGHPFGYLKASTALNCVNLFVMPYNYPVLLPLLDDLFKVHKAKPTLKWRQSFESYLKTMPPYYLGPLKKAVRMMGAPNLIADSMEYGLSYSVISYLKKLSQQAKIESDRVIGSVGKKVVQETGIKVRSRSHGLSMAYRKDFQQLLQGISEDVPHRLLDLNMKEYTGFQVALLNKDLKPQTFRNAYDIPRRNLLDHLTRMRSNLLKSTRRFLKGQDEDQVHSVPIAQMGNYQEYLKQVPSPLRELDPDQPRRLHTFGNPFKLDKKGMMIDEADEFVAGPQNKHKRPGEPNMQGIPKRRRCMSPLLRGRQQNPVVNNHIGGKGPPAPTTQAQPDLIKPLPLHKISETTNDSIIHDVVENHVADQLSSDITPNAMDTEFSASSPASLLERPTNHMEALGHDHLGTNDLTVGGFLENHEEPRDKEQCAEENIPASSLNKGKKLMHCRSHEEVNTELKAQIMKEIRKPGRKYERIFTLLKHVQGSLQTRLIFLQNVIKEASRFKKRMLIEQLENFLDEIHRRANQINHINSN
UniProt Q68E01: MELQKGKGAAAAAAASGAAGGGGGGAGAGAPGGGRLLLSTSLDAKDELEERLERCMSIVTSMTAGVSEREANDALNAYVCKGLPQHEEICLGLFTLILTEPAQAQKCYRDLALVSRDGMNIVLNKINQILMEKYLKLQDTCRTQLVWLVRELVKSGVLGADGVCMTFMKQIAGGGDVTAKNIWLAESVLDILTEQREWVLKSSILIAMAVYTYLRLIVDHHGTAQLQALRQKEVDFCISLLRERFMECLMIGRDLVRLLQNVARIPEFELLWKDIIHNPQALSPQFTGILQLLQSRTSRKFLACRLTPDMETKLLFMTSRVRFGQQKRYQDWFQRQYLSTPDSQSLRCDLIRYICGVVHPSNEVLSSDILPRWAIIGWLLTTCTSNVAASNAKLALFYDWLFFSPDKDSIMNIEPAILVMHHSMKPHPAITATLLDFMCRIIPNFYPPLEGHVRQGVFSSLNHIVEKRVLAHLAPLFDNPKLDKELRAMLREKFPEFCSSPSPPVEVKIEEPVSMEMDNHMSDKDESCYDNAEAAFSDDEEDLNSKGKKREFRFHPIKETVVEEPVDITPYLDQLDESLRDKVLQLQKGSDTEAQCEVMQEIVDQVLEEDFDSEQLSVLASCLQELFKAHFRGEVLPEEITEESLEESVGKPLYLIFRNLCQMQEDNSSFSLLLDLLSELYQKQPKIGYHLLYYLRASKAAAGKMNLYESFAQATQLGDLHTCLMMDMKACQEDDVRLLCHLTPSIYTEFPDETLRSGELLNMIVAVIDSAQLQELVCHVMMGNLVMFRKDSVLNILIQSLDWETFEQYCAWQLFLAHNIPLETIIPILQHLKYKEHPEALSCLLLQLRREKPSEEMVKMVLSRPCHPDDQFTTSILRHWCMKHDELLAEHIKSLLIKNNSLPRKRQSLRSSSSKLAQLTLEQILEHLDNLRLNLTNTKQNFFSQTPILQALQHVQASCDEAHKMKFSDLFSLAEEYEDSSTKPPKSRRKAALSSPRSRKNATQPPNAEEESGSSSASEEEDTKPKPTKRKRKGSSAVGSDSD

Legend:
[1] = target: INTS6 (integrator complex subunit 6), endogenous full-length protein (human) (UniProt Q9UL03); experiment: IP-MS with anti-INTS3 antibody in SAGE1 negative 293T cells
[2] = target: INTS3CTD (C-terminal domain of INTS3, residues 572-978) (human) (UniProt Q68E01); experiment: GST pull-down competition; GST-SAGE1I3BD added in equal molar ratio to the INTS3CTD-INTS6I3BD complex; competitor INTS6I3BD

binding [1]: binds
Molecule: INTS3 (integrator complex subunit 3), endogenous full-length protein (from UniProt Q68E01 2-1043)

binding [2]: binds
B1: SAGE1I3BD (INTS3-binding domain of SAGE1, residues 818-904) (other)
chain: AMAKKINDDIKYQLMKEVRRFGQNYERIFILLEEVQGSMKVKRQFVEFTIKEAARFKKVVLIQQLEKALKEIDSHCHLRKVKHMRKR
notes: Expressed in E. coli with a His-SUMO or GST tag; also called SAGE1818-904; small C-terminal region of SAGE1
